Results are given in words; binding and its absence hold for the method and conditions named. In cells and extracts the contact can be indirect. Some results given as binding are weak or reduced against the parent protein; the word gives no strength.
Molecular target: His-TTC3 (UniProt P53804)
Assay: co-IP; DU145 (and PC-3) cells transfected with tagged plasmids; lysate, specific antibody, Protein A/G magnetic beads, low pH elution, Western blot

Protein sequences, listed by entry. Tags and fused reporters are not part of them.
UniProt P53804: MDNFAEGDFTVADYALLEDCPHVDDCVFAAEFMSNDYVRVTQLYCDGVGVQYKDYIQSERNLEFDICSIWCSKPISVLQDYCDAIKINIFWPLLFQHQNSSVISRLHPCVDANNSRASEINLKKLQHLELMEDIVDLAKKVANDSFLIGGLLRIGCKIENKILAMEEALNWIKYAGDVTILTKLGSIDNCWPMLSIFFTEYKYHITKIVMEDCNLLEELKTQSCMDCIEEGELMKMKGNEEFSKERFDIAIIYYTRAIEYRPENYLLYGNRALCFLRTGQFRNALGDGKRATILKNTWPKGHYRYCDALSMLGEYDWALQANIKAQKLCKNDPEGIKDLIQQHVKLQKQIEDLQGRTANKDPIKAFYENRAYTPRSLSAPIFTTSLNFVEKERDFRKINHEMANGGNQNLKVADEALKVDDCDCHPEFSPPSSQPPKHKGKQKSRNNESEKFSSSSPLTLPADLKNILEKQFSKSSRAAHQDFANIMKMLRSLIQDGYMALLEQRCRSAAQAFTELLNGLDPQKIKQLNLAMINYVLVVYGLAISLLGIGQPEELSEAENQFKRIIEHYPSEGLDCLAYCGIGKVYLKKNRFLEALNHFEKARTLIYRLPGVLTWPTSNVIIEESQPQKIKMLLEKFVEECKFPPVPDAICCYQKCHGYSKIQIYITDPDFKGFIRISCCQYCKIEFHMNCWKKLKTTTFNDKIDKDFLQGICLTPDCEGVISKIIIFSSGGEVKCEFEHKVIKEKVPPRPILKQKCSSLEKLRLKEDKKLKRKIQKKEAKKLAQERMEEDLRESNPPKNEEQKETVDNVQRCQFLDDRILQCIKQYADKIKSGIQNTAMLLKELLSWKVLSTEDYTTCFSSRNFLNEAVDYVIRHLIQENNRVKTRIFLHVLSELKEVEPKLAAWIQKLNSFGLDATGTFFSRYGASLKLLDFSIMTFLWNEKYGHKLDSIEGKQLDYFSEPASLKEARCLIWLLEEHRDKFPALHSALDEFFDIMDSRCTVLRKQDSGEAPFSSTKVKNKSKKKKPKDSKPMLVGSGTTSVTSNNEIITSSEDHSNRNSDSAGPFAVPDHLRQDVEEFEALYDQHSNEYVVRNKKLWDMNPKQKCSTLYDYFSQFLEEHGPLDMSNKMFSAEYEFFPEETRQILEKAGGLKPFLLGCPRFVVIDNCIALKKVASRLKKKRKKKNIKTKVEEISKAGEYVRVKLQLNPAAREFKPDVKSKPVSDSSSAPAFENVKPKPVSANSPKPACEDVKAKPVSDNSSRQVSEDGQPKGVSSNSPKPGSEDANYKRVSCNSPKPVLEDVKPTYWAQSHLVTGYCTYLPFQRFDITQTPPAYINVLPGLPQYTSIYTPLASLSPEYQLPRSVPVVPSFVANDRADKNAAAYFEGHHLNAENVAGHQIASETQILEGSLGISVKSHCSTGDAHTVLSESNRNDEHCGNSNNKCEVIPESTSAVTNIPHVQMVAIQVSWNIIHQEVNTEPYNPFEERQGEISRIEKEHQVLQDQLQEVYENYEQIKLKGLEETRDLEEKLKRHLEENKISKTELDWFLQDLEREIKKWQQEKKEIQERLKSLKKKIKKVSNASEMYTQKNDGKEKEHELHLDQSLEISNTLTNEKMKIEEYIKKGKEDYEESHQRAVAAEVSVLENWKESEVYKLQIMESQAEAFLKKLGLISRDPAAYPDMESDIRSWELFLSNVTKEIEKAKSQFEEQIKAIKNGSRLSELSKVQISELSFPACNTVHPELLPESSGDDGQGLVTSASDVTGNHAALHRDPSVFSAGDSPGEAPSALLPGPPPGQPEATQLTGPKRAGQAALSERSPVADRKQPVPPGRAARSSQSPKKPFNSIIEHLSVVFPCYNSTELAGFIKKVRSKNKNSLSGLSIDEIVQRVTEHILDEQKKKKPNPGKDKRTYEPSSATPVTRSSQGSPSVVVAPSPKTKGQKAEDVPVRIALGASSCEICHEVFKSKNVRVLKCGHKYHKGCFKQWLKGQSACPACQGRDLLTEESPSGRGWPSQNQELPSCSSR
UniProt P55884: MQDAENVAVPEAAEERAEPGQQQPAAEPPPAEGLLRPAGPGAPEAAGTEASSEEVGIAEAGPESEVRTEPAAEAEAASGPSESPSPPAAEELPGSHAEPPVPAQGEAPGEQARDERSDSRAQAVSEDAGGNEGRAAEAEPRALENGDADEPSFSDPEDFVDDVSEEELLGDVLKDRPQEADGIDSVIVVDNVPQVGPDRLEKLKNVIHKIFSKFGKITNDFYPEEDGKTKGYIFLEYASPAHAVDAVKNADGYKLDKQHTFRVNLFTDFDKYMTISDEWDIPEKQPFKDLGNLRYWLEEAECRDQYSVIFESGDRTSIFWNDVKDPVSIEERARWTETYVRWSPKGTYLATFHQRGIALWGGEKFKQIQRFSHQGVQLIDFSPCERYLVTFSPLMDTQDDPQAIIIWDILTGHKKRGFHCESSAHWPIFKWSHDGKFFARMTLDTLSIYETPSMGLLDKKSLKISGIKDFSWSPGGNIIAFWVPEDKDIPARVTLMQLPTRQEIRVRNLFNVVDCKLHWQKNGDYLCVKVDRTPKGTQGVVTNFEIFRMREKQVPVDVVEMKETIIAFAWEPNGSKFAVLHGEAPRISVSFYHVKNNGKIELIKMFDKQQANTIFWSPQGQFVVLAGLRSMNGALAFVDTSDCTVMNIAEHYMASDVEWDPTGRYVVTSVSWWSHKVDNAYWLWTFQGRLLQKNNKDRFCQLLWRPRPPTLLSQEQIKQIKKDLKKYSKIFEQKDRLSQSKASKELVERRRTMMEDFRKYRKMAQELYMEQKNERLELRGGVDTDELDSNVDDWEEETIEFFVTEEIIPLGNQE

- binding: binds
Substance: HA-EIF3b (from UniProt P55884 1-814)

Reference: PMC11380452
